Source: article PMC11845791
Results are given in words; binding and its absence hold for the method and conditions named. In cells and extracts the contact can be indirect. These calls come from enrichment with a bait or labelling near it, and not all partners need be listed.

Target: T1, nucleotide pyrophosphatase (NPPS), endogenous in H292 isogenic cells (human (endogenous in H292)) (UniProt P22413)
T1 sequence: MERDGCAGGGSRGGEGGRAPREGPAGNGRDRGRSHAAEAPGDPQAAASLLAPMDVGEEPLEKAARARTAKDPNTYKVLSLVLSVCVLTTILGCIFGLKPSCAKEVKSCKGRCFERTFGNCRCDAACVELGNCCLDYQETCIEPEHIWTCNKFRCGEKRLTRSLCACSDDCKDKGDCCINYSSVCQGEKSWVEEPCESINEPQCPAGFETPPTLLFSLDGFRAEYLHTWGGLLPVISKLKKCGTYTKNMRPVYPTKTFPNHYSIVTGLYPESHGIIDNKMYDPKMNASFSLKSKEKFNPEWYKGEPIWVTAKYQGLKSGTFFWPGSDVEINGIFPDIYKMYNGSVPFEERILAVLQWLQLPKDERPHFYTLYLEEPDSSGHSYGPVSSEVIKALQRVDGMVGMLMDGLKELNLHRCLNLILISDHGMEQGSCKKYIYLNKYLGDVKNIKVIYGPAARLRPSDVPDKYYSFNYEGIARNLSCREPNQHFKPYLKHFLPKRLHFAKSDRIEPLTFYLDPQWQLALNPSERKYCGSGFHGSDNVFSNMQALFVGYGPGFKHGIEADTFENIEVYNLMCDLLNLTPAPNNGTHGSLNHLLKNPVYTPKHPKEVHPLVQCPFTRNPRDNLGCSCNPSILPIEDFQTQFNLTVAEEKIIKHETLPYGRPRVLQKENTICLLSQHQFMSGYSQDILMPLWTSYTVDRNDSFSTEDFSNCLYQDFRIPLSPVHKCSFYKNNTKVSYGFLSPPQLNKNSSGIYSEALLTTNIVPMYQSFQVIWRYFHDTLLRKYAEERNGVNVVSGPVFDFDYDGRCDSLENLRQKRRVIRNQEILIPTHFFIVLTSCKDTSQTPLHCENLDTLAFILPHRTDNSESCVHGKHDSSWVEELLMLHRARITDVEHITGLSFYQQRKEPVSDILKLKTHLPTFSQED
Experiment: affinity purification with mass spectrometry; anti-NPPS immunoprecipitates from H292 isogenic cells (KRAS WT clone WT1, KRAS G12C clones C18 and C38); QE-Plus mass spectrometer; hits filtered for concurrent change in G12C clones and relation to glycolysis

B1: hexokinase 1 (HK1), endogenous in H292 isogenic cells (protein, UniProt P19367-1 1-917)
chain: MIAAQLLAYYFTELKDDQVKKIDKYLYAMRLSDETLIDIMTRFRKEMKNGLSRDFNPTATVKMLPTFVRSIPDGSEKGDFIALDLGGSSFRILRVQVNHEKNQNVHMESEVYDTPENIVHGSGSQLFDHVAECLGDFMEKRKIKDKKLPVGFTFSFPCQQSKIDEAILITWTKRFKASGVEGADVVKLLNKAIKKRGDYDANIVAVVNDTVGTMMTCGYDDQHCEVGLIIGTGTNACYMEELRHIDLVEGDEGRMCINTEWGAFGDDGSLEDIRTEFDREIDRGSLNPGKQLFEKMVSGMYLGELVRLILVKMAKEGLLFEGRITPELLTRGKFNTSDVSAIEKNKEGLHNAKEILTRLGVEPSDDDCVSVQHVCTIVSFRSANLVAATLGAILNRLRDNKGTPRLRTTVGVDGSLYKTHPQYSRRFHKTLRRLVPDSDVRFLLSESGSGKGAAMVTAVAYRLAEQHRQIEETLAHFHLTKDMLLEVKKRMRAEMELGLRKQTHNNAVVKMLPSFVRRTPDGTENGDFLALDLGGTNFRVLLVKIRSGKKRTVEMHNKIYAIPIEIMQGTGEELFDHIVSCISDFLDYMGIKGPRMPLGFTFSFPCQQTSLDAGILITWTKGFKATDCVGHDVVTLLRDAIKRREEFDLDVVAVVNDTVGTMMTCAYEEPTCEVGLIVGTGSNACYMEEMKNVEMVEGDQGQMCINMEWGAFGDNGCLDDIRTHYDRLVDEYSLNAGKQRYEKMISGMYLGEIVRNILIDFTKKGFLFRGQISETLKTRGIFETKFLSQIESDRLALLQVRAILQQLGLNSTCDDSILVKTVCGVVSRRAAQLCGAGMAAVVDKIRENRGLDRLNVTVGVDGTLYKLHPHFSRIMHQTVKELSPKCNVSFLLSEDGSGKGAALITAVGVRLRTEASS
binding: binds

B2: phosphofructokinase, platelet (PFKP), endogenous in H292 isogenic cells (protein, UniProt Q01813 1-784)
chain: MDADDSRAPKGSLRKFLEHLSGAGKAIGVLTSGGDAQGMNAAVRAVVRMGIYVGAKVYFIYEGYQGMVDGGSNIAEADWESVSSILQVGGTIIGSARCQAFRTREGRLKAACNLLQRGITNLCVIGGDGSLTGANLFRKEWSGLLEELARNGQIDKEAVQKYAYLNVVGMVGSIDNDFCGTDMTIGTDSALHRIIEVVDAIMTTAQSHQRTFVLEVMGRHCGYLALVSALACGADWVFLPESPPEEGWEEQMCVKLSENRARKKRLNIIIVAEGAIDTQNKPITSEKIKELVVTQLGYDTRVTILGHVQRGGTPSAFDRILASRMGVEAVIALLEATPDTPACVVSLNGNHAVRLPLMECVQMTQDVQKAMDERRFQDAVRLRGRSFAGNLNTYKRLAIKLPDDQIPKTNCNVAVINVGAPAAGMNAAVRSAVRVGIADGHRMLAIYDGFDGFAKGQIKEIGWTDVGGWTGQGGSILGTKRVLPGKYLEEIATQMRTHSINALLIIGGFEAYLGLLELSAAREKHEEFCVPMVMVPATVSNNVPGSDFSIGADTALNTITDTCDRIKQSASGTKRRVFIIETMGGYCGYLANMGGLAAGADAAYIFEEPFDIRDLQSNVEHLTEKMKTTIQRGLVLRNESCSENYTTDFIYQLYSEEGKGVFDCRKNVLGHMQQGGAPSPFDRNFGTKISARAMEWITAKLKEARGRGKKFTTDDSICVLGISKRNVIFQPVAELKKQTDFEHRIPKEQWWLKLRPLMKILAKYKASYDVSDSGQLEHVQPWSV
binding: binds
